Data reported in PubChem BioAssay AID256 (DTP/NCI, 2004).
The list does not hold the whole screen: it gathers tests that were run many times, whatever their T/C, doses with no T/C, and many T/C values between a quarter and a half above the control. Other doses and runs of a compound stand elsewhere. T/C is the treated group as % of the vehicle group. Some doses have a count of surviving animals in place of a T/C: the source files T/C as zero there, which appears to mark a toxic dose or a test without result, not a measured value. Some doses without a T/C left all or most animals alive at the check, yet need not have been tolerated: the source hardly ever lists a survival T/C far under the control, and the zero likely stands for such cases as well. Survivors were counted at the toxicity check, usually on the fifth day, unless a day is given; later deaths do not show. Schedule codes are those of the source, read here as Q, the interval in days (D) or hours (H), X, the number of doses. Some entries were tested several times; their values stand side by side, smallest first. Brackets with × stand for listed records that agree. Some schedule codes hold Z or #, which are not explained here. Where survival is the endpoint, the PubChem record calls one and a half times the control and up active, and a quarter to a half above the control has no call in these data; cut-offs in other NCI protocols can differ. Some T/C values carry the count of animals alive at the toxicity check (mostly the fifth day); where none is given, no animal had died by that day.

Tested on: CD2F1 mice, L1210 leukemia ip, survival T/C
Assay: NCI In Vivo Anticancer Drug Screen. Data for tumor model L1210 Leukemia (intraperitoneal) in CD2F1 (CDF1) mice
Details: higher T/C = longer survival
Method in brief: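 Read-out first: treated-group measurement over vehicle-control measurement, expressed as a ratio. Animals bore a transplanted tumor line and were dosed with compound or vehicle.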

[1] = T/C endpoint: mean survival time, dose: 32.0 mg/kg/injection, schedule: Q01DX001 (ip), vehicle: saline
[2] = T/C endpoint: median survival time, dose: 5.0 mg/kg/injection, schedule: Q01DX001 (ip), vehicle: Klucel (hydroxypropylcellulose) (HPC)

N[C@@H](Cc1ccc(N(CCCl)CCCl)cc1)C(=O)O
T/C (T/C endpoint: mean survival time, dose: 8.0 mg/kg/injection, schedule: Q04DX003 (ip), vehicle: saline, evaluated on day 5): 383 % of control
T/C (T/C endpoint: mean survival time, dose: 8.0 mg/kg/injection, schedule: Q04DX003 (ip), vehicle: saline, evaluated on day 30): 108, 218, 223, 234 % of control
T/C (T/C endpoint: mean survival time, dose: 8.0 mg/kg/injection, schedule: Q04DX003 (ip), vehicle: saline, evaluated on day 45): 230 % of control
T/C (T/C endpoint: mean survival time, dose: 8.0 mg/kg/injection, schedule: Q## X010 (ip), vehicle: saline): 132 % of control
T/C (T/C endpoint: mean survival time, dose: 8.0 mg/kg/injection, schedule: Q## X016 (oral), vehicle: saline): 125 % of control
T/C (T/C endpoint: mean survival time, dose: 10.0 mg/kg/injection, schedule: Q01DX001 (ip), vehicle: saline): 139, 140, 215, 228, 325 % of control
T/C (T/C endpoint: mean survival time, dose: 15.0 mg/kg/injection, schedule: Q01DX001 (ip), vehicle: saline): 260, 288, 377, 426, 501 % of control
survivor count (T/C endpoint: mean survival time, dose: 15.0 mg/kg/injection, schedule: Q01DX007 (ip), vehicle: saline with Tween-80): 0 of 6
survivor count (T/C endpoint: mean survival time, dose: 15.0 mg/kg/injection, schedule: Q01DX009 (ip), vehicle: saline with Tween-80): 0 of 6
T/C (T/C endpoint: mean survival time, dose: 16.0 mg/kg/injection, schedule: Q01DX001 (ip), vehicle: Klucel (hydroxypropylcellulose) (HPC)): 144 % of control
T/C (T/C endpoint: mean survival time, dose: 16.0 mg/kg/injection, schedule: Q01DX001 (ip), vehicle: other): 149 % of control
T/C (T/C endpoint: mean survival time, dose: 16.0 mg/kg/injection, schedule: Q01DX001 (ip), vehicle: saline, evaluated on day 30): 129, 150, 200, 288 % of control
T/C (T/C endpoint: mean survival time, dose: 16.0 mg/kg/injection, schedule: Q01DX001 (ip), vehicle: saline, evaluated on day 45): 245 % of control
survivor count (T/C endpoint: mean survival time, dose: 16.0 mg/kg/injection, schedule: Q01DX005 (oral), vehicle: saline): 8 of 10
survivor count (T/C endpoint: mean survival time, dose: 16.0 mg/kg/injection, schedule: Q01DX009 (ip), vehicle: Klucel (hydroxypropylcellulose) (HPC)): 6 of 6
survivor count (T/C endpoint: mean survival time, dose: 16.0 mg/kg/injection, schedule: Q01DX009 (ip), vehicle: saline): 10 of 10 and 6 of 6 (2×)
T/C (T/C endpoint: mean survival time, dose: 16.0 mg/kg/injection, schedule: Q04DX003 (ip), vehicle: saline, evaluated on day 30): 96 and 147 % of control
T/C (T/C endpoint: mean survival time, dose: 16.0 mg/kg/injection, schedule: Q04DX003 (ip), vehicle: saline, evaluated on day 45): 170 % of control
survivor count (T/C endpoint: mean survival time, dose: 16.0 mg/kg/injection, schedule: Q04DX003 (ip), vehicle: saline): 6 of 6
survivor count (T/C endpoint: mean survival time, dose: 16.0 mg/kg/injection, schedule: Q## X010 (oral), vehicle: saline): 10 of 10
survivor count (T/C endpoint: mean survival time, dose: 30.0 mg/kg/injection, schedule: Q01DX007 (ip), vehicle: saline with Tween-80): 0 of 6
survivor count (T/C endpoint: mean survival time, dose: 30.0 mg/kg/injection, schedule: Q01DX009 (ip), vehicle: saline with Tween-80): 0 of 6
survivor count (T/C endpoint: mean survival time, dose: 32.0 mg/kg/injection, schedule: Q01DX001 (ip), vehicle: DMSO): 4 of 6
survivor count (T/C endpoint: mean survival time, dose: 32.0 mg/kg/injection, schedule: Q01DX001 (ip), vehicle: Klucel (hydroxypropylcellulose) (HPC)): 4 of 6
T/C [1]: 108 [5 of 6 alive], 139 [4 of 6 alive], 166 % of control
survivor count [1]: 7 of 10 and 5 of 6
survivor count (T/C endpoint: mean survival time, dose: 32.0 mg/kg/injection, schedule: Q01DX009 (ip), vehicle: Klucel (hydroxypropylcellulose) (HPC)): 4 of 6
survivor count (T/C endpoint: mean survival time, dose: 32.0 mg/kg/injection, schedule: Q04DX003 (ip), vehicle: saline): 3 of 6 and 7 of 10
T/C (T/C endpoint: mean survival time, dose: 32.0 mg/kg/injection, schedule: Q## X016 (oral), vehicle: saline): 145 % of control
survivor count (T/C endpoint: mean survival time, dose: 64.0 mg/kg/injection, schedule: Q01DX001 (ip), vehicle: saline with Tween-80): 1 of 6
survivor count (T/C endpoint: mean survival time, dose: 64.0 mg/kg/injection, schedule: Q01DX001 (ip), vehicle: saline): 0 of 10 and 2 of 6
survivor count (T/C endpoint: mean survival time, dose: 128.0 mg/kg/injection, schedule: Q01DX001 (ip), vehicle: saline with Tween-80): 0 of 6
survivor count (T/C endpoint: mean survival time, dose: 256.0 mg/kg/injection, schedule: Q01DX001 (ip), vehicle: saline with Tween-80): 0 of 6
T/C (T/C endpoint: median survival time, dose: 0.5 mg/kg/injection, schedule: Q01DX005 (ip), vehicle: saline): 149 % of control
T/C (T/C endpoint: median survival time, dose: 0.5 mg/kg/injection, schedule: Q01DX009 (ip), vehicle: saline): 127 % of control
T/C (T/C endpoint: median survival time, dose: 1.0 mg/kg/injection, schedule: Q01DX005 (ip), vehicle: saline): 144 % of control
T/C (T/C endpoint: median survival time, dose: 3.75 mg/kg/injection, schedule: Q01DX009 (ip), vehicle: saline): 128 % of control
T/C [2]: 137 % of control
survivor count [2]: 4 of 6
survivor count (T/C endpoint: median survival time, dose: 6.0 mg/kg/injection, schedule: Q04DX003 (ip), vehicle: Klucel (hydroxypropylcellulose) (HPC)): 2 of 6
T/C (T/C endpoint: median survival time, dose: 7.5 mg/kg/injection, schedule: Q01DX009 (ip), vehicle: saline): 128 and 135 % of control
survivor count (T/C endpoint: median survival time, dose: 10.0 mg/kg/injection, schedule: Q01DX001 (ip), vehicle: Klucel (hydroxypropylcellulose) (HPC)): 0 of 6
T/C (T/C endpoint: median survival time, dose: 10.0 mg/kg/injection, schedule: Q01DX001 (ip), vehicle: saline, evaluated on day 5): 170 and 187 % of control
T/C (T/C endpoint: median survival time, dose: 10.0 mg/kg/injection, schedule: Q01DX001 (ip), vehicle: saline, evaluated on day 30): 182 % of control
T/C (T/C endpoint: median survival time, dose: 10.0 mg/kg/injection, schedule: Q01DX001 (ip), vehicle: saline, evaluated on day 45): 168, 182, 189 % of control
T/C (T/C endpoint: median survival time, dose: 10.0 mg/kg/injection, schedule: Q01DX001 (ip), vehicle: saline, evaluated on day 60): 154 and 185 % of control
survivor count (T/C endpoint: median survival time, dose: 12.0 mg/kg/injection, schedule: Q04DX003 (ip), vehicle: Klucel (hydroxypropylcellulose) (HPC)): 0 of 6
T/C (T/C endpoint: median survival time, dose: 15.0 mg/kg/injection, schedule: Q01DX001 (ip), vehicle: saline, evaluated on day 5): 183 and 221 % of control
T/C (T/C endpoint: median survival time, dose: 15.0 mg/kg/injection, schedule: Q01DX001 (ip), vehicle: saline, evaluated on day 30): 195 and 370 % of control
T/C (T/C endpoint: median survival time, dose: 15.0 mg/kg/injection, schedule: Q01DX001 (ip), vehicle: saline, evaluated on day 45): 194, 198, 209, 226, 548 % of control
T/C (T/C endpoint: median survival time, dose: 15.0 mg/kg/injection, schedule: Q01DX001 (ip), vehicle: saline, evaluated on day 60): 178, 207, 216 % of control
survivor count (T/C endpoint: median survival time, dose: 20.0 mg/kg/injection, schedule: Q01DX001 (ip), vehicle: Klucel (hydroxypropylcellulose) (HPC)): 0 of 6 and 6 of 6
T/C (T/C endpoint: median survival time, dose: 20.0 mg/kg/injection, schedule: Q01DX001 (ip), vehicle: saline, evaluated on day 30): 344 % of control
T/C (T/C endpoint: median survival time, dose: 20.0 mg/kg/injection, schedule: Q01DX001 (ip), vehicle: saline, evaluated on day 45): 210, 523, 535, 548, 576 % of control
T/C (T/C endpoint: median survival time, dose: 20.0 mg/kg/injection, schedule: Q01DX001 (ip), vehicle: saline, evaluated on day 60): 414 % of control
survivor count (T/C endpoint: median survival time, dose: 30.0 mg/kg/injection, schedule: Q01DX009 (ip), vehicle: saline): 1 of 6 and 4 of 6
